Here are results for one molecule from article PMC9077873.

By UniProt entry, the sequences of proteins in these tests, tags left out. Where a name states a change or a piece, a line headed by the entry shows the natural chain unless it says otherwise.
UniProt Q8K4Z3: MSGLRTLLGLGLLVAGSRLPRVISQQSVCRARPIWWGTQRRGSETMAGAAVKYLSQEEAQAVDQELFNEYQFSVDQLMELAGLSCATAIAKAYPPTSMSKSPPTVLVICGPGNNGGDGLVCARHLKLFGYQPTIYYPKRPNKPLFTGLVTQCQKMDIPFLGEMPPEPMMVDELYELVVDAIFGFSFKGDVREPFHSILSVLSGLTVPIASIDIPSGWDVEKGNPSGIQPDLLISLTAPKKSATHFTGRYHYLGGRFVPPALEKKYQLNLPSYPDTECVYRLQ

This test deals with Apolipoprotein A-I binding protein, FLAG-tagged (AIBP-FLAG) (UniProt Q8K4Z3). In words: co-IP; 293 T cells transfected with AIBP-FLAG/AIBP(ΔMLS)-Flag; lysis in 150 mM NaCl, 25 mM HEPES, 0.2% NP40, 10% glycerol, 1 mM DTT; anti-FLAG or anti-HA antibody 6 h at 4 °C, Protein G Sepharose overnight; Western blot. Background: In western blotting, separated proteins are transferred to a membrane and probed.

No constants are given. Whether binding was seen depends on the method and setting. In cells and extracts the contact can be indirect. A result given as binding can be weak or reduced; the word gives no strength.

B1: Mitochondrial inner membrane transporter TIM23 (protein, UniProt O14925 1-209)
chain: MEGGGGSGNKTTGGLAGFFGAGGAGYSHADLAGVPLTGMNPLSPYLNVDPRYLVQDTDEFILPTGANKTRGRFELAFFTIGGCCMTGAAFGAMNGLRLGLKETQNMAWSKPRNVQILNMVTRQGALWANTLGSLALLYSAFGVIIEKTRGAEDDLNTVAAGTMTGMLYKCTGGLRGIARGGLTGLTLTSLYALYNNWEHMKGSLLQQSL
With B1, the binding result is recorded as “binds”.
